Measurements as given in US20150368248A1, “2-SUBSTITUTED-6-BIARYLMETHYLAMINO-9-CYCLOPENTYL-9H-PURINE DERIVATIVES, USE THEREOF AS MEDICAMENTS, AND PHARMACEUTICAL COMPOSITIONS” (UNIVERZITA PALACKEHO V OLOMOUCI, priority 2013, published 2015).
Some results were stated once for a whole list of compounds, not compound by compound.

System: E-selectin (ELAM-1) on HUVECs
Experiment: E-selectin (ELAM-1) expression ELISA after TNFα stimulation
Format: cell-based, human
Conditions: 1 μM of compound; TNF without inhibitor = 100%

NC1CCC(Nc2nc(NCc3ccc(-c4cccs4)nc3)c3ncn(C4CCCC4)c3n2)CC1 (stereo not shown) [BP30, N^2-(4-amino-cyclohexyl)-9-cyclopentyl-N^6-(6-thiophen-2-yl-pyridin-3-ylmethyl)-9H-purine-2,6-diamine]
expression of ELAM-1, inhibition values: below 25%
